According to publication PMC5309968:
Results are given in words; binding and its absence hold for the method and conditions named. Binding seen in cells or lysates may run through a third protein. Some entries that bind do so weakly or less than the wild type.

Sequences of proteins named here, by UniProt entry; tags and fusion partners are left off.
UniProt P03122: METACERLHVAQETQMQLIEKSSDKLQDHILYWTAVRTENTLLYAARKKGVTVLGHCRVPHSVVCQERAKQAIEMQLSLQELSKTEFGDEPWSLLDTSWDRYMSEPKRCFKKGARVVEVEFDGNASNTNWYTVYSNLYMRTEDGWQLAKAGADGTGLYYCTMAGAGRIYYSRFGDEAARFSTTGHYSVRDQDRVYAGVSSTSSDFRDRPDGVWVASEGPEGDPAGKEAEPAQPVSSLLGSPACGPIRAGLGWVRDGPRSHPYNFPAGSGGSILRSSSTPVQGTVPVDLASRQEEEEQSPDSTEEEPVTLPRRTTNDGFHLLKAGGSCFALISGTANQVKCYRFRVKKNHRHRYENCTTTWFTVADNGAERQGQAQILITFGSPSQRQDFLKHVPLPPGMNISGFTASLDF
UniProt Q6NUQ1: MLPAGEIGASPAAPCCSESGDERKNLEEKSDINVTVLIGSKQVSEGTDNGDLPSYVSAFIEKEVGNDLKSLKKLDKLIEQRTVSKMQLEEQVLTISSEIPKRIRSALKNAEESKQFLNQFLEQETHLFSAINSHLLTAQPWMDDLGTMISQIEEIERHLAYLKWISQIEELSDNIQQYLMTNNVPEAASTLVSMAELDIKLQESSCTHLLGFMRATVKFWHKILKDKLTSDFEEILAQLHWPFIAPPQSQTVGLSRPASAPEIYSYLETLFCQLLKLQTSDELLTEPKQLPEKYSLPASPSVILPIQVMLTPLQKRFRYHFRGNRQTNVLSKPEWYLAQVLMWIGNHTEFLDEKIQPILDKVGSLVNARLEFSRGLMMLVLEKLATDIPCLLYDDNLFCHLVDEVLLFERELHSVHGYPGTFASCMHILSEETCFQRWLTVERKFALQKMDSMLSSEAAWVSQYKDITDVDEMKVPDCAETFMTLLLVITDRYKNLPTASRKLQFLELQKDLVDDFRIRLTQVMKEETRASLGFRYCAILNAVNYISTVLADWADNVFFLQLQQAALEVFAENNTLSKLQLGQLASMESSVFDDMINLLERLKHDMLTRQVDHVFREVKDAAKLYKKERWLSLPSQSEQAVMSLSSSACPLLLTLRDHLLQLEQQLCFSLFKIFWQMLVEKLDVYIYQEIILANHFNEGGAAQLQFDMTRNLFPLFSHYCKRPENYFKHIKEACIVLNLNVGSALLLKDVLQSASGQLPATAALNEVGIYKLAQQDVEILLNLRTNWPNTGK

Biological target: bovine papillomavirus 1 (BPV1) E2 (bovine papillomavirus 1) (UniProt P03122)
Assay: co-IP; co-IP of HA-Rint1 with BPV1 E2; data not shown

“HA-tagged Rad50-interacting protein 1 (HA-Rint1) (from UniProt Q6NUQ1 1-792)” was tested, and the binding was “binds”.
